# From doi:10.1101/455378
# Amino acid sequences for entries named in this document (tags omitted). A change or cut given only in a name is not applied to a line headed by its entry.
# UniProt Q4P8R9: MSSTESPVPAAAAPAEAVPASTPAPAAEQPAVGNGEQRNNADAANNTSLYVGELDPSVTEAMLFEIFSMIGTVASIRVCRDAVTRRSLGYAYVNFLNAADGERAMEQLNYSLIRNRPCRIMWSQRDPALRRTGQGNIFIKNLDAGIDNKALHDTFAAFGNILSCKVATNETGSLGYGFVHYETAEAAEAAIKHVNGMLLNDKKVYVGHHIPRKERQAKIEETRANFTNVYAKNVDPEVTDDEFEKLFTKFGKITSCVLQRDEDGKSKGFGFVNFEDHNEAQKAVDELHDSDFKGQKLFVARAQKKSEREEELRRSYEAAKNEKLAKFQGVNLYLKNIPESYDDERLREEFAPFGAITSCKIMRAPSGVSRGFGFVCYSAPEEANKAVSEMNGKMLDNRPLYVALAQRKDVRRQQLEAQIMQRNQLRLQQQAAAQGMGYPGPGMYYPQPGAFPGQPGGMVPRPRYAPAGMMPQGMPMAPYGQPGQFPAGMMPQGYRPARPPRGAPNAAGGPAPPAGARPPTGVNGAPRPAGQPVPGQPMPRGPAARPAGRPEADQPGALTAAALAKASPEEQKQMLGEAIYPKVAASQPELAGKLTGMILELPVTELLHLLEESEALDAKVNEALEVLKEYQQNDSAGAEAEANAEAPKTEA
# UniProt A0A0D1DRJ3: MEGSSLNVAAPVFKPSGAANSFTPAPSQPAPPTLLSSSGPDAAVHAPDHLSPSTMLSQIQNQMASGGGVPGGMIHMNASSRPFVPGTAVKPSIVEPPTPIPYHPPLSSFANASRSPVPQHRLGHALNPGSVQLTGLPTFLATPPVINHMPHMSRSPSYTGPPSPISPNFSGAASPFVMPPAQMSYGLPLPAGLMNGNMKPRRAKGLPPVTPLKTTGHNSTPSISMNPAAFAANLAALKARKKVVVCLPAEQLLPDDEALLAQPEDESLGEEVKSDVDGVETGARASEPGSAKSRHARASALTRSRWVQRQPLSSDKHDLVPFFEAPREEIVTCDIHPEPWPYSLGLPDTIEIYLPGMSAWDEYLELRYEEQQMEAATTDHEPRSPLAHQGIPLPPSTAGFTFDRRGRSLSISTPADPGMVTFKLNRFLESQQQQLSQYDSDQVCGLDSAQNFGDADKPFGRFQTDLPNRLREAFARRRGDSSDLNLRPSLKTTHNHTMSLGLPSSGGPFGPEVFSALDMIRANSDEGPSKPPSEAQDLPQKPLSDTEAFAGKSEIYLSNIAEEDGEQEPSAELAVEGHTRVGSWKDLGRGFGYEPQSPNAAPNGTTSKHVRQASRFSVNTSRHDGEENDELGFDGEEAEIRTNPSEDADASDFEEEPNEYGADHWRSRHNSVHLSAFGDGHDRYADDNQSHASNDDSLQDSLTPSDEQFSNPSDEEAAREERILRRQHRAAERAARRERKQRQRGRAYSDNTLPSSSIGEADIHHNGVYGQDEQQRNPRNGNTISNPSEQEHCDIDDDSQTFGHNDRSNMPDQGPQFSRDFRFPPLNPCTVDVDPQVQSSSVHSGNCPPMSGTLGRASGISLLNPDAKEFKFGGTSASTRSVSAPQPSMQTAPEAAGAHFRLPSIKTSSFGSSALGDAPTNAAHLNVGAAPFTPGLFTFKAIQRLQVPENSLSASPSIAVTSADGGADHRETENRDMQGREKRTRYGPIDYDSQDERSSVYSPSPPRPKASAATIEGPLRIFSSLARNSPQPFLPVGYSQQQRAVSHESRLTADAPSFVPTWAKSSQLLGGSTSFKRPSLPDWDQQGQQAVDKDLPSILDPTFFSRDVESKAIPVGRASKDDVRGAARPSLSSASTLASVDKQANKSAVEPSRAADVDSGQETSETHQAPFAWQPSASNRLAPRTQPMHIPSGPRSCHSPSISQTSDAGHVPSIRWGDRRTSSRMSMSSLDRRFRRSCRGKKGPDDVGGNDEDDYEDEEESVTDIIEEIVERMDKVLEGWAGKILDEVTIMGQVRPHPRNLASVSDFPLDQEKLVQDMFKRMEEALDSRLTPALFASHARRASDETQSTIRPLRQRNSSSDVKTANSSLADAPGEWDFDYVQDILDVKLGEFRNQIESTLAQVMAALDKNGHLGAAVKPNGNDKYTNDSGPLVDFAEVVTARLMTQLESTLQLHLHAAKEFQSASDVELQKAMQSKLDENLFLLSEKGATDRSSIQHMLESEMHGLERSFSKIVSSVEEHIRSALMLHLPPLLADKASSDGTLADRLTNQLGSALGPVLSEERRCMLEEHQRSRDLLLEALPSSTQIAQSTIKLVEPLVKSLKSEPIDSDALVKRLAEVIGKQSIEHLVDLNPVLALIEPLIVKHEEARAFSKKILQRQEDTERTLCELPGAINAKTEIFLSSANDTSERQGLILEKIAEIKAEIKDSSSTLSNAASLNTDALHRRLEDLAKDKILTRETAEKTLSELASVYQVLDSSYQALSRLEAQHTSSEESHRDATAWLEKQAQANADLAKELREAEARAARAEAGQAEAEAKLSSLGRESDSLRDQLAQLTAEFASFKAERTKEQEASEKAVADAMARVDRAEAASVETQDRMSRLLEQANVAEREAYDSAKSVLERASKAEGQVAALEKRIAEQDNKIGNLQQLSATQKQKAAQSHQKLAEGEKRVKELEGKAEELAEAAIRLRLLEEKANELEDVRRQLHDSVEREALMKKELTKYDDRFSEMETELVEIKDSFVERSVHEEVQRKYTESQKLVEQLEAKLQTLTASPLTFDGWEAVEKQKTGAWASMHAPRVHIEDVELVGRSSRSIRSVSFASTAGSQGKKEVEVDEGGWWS
# These are yes or no findings as the source states them, for the method shown. Some results given as binding are weak or reduced against the parent protein; the word gives no strength.
# Legend:
# Test in all cases: two-hybrid
# Rrm4 (Ustilago maydis) = molecular target: Rrm4 (Ustilago maydis)
# [1] = molecular target: full length Pab1 (poly(A)-binding protein) (Ustilago maydis) (UniProt Q4P8R9)
# Upa1 (Ustilago maydis) = molecular target: Upa1 (Ustilago maydis)
# [2] = molecular target: coiled coil region of Upa2 (amino acids 1712-2121) (Ustilago maydis)
binding (Rrm4 (Ustilago maydis)),binding [1],binding (Upa1 (Ustilago maydis)),binding [2],Substance
no binding,binds weakly,no binding,–,Full-length Upa2 (Ustilago PAM2 protein 2) (from UniProt A0A0D1DRJ3 1-2121)
–,no binding,–,–,C-terminal part of Upa2 (aa 1217-2121) (from UniProt A0A0D1DRJ3 1217-2121) (domain or fragment)
–,binds,–,–,PAM2-containing N-terminal part of Upa2 (aa 1-1216) (from UniProt A0A0D1DRJ3 1-1216) (domain or fragment)
–,–,–,binds,coiled coil region of Upa2 (amino acids 1712-2121) (from UniProt A0A0D1DRJ3 1712-2121) (domain or fragment)
